Data from publication PMC9668932.
Results are given in words; binding and its absence hold for the method and conditions named. For some of these results: Binding seen in cells or lysates may run through a third protein. Some binding calls cover weakened binding; strength is not graded here.

By UniProt entry, the sequences of proteins in these tests, tags left out. Where a name states a change or a piece, a line headed by the entry shows the natural chain unless it says otherwise. Chains listed by the source or under a name are the forms on record and can include a tag or linker. Residues count along the entry.
human aryl hydrocarbon receptor, residues 1-437 (P35869, residues 1-437): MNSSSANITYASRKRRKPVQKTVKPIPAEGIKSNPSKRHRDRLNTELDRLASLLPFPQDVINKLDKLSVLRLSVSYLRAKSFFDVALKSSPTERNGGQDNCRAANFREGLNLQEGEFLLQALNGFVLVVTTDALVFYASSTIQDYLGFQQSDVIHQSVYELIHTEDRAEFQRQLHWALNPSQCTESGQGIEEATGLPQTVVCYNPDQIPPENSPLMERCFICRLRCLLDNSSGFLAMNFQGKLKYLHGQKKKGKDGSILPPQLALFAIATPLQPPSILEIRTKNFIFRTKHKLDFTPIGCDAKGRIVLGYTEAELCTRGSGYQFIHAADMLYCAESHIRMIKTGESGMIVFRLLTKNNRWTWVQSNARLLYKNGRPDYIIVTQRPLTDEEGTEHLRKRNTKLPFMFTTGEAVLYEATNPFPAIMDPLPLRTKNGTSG
Twin Strep-tag-MBP-TEV site-AHR_(1-437) R281A (P35869, form named): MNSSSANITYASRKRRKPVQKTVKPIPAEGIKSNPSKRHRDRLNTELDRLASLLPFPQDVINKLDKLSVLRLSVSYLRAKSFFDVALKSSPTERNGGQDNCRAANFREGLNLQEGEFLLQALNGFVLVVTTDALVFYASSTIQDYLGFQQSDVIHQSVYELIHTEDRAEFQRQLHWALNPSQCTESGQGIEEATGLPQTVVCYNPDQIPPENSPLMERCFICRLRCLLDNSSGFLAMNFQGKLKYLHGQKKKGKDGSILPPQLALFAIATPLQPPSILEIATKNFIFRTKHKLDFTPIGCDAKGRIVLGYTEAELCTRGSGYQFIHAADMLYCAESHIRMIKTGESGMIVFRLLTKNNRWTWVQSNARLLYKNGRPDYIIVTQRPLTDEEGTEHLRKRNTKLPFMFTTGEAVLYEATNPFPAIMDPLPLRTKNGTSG
Twin Strep-tag-MBP-TEV site-AHR_(1-437), residue 278 to alanine (P35869, form named): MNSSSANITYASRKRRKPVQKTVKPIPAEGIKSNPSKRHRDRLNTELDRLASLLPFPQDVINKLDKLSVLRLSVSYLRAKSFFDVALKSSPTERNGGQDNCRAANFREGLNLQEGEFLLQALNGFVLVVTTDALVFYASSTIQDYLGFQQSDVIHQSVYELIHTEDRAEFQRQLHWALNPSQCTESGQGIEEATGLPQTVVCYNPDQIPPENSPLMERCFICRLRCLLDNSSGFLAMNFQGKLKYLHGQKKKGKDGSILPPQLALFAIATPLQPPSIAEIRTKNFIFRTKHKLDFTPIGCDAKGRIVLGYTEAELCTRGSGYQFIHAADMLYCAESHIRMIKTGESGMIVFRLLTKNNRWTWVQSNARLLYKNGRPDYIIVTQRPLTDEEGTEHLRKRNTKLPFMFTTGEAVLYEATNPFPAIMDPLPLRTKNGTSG
Twin Strep-tag-MBP-TEV site-AHR_(1-437) F404A (P35869, form named): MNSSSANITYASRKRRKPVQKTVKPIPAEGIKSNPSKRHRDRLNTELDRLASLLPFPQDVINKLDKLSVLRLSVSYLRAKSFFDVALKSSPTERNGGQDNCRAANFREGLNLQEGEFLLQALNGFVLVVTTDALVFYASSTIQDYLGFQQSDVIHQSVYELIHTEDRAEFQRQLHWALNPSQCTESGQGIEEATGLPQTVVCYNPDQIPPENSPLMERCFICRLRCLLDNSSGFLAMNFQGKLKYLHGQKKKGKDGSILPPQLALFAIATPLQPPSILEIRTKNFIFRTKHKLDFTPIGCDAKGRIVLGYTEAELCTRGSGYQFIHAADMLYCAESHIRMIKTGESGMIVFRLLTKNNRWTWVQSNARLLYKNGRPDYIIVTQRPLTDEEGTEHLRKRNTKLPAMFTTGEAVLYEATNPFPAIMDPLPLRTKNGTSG
Twin Strep-tag-MBP-TEV site-AHR_(1-437) I277A (P35869, form named): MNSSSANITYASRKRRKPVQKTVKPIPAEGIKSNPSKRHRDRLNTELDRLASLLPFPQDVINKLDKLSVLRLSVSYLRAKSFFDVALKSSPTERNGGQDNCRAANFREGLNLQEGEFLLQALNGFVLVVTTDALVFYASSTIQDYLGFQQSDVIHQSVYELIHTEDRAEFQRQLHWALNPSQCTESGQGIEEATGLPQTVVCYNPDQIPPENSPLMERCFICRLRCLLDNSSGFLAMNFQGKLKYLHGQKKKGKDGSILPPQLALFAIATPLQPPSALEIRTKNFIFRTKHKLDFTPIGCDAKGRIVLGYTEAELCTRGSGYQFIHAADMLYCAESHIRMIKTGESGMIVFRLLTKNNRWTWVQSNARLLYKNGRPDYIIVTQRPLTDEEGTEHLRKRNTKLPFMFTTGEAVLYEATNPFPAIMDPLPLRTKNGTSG
Twin Strep-tag-MBP-TEV site-AHR_(1-437) I280A (P35869, form named): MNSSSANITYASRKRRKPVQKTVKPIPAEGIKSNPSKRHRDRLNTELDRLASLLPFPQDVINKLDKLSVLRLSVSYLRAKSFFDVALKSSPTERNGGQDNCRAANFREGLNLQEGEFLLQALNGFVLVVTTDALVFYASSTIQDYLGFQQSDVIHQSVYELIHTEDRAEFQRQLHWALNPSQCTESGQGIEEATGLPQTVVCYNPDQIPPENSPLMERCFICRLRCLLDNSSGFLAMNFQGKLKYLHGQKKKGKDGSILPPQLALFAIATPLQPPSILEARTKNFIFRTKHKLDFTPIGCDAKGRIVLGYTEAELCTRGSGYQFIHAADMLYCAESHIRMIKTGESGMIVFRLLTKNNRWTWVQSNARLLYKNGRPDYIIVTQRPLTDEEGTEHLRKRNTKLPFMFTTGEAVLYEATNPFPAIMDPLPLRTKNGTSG
Twin Strep-tag-MBP-TEV site-AHR_(1-437) P275A (P35869, form named): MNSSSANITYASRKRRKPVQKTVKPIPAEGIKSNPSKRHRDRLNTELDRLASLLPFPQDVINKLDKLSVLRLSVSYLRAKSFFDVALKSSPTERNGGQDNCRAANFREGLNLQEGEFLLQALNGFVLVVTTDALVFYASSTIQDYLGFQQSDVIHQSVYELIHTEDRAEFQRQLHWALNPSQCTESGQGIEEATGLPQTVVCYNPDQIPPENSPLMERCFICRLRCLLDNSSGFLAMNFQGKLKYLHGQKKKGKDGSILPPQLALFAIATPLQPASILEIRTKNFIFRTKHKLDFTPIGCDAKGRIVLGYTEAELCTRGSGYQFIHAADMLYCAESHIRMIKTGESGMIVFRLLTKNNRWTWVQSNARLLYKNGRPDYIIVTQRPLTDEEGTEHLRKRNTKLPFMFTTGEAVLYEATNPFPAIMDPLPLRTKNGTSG
Twin Strep-tag-MBP-TEV site-AHR_(1-437) S276A (P35869, form named): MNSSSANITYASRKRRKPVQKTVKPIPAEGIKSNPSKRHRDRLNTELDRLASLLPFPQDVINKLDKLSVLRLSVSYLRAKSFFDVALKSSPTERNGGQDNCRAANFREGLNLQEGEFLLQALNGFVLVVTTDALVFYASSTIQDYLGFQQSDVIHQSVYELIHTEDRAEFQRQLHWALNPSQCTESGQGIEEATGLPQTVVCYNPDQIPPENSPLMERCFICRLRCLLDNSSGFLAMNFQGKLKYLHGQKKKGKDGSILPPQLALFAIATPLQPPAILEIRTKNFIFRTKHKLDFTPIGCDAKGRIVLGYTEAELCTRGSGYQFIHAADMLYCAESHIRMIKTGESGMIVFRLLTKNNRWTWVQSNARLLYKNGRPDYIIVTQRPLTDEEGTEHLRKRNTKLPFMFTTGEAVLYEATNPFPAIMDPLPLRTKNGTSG
Twin Strep-tag-MBP-TEV site-AHR_(1-437) Y414A (P35869, form named): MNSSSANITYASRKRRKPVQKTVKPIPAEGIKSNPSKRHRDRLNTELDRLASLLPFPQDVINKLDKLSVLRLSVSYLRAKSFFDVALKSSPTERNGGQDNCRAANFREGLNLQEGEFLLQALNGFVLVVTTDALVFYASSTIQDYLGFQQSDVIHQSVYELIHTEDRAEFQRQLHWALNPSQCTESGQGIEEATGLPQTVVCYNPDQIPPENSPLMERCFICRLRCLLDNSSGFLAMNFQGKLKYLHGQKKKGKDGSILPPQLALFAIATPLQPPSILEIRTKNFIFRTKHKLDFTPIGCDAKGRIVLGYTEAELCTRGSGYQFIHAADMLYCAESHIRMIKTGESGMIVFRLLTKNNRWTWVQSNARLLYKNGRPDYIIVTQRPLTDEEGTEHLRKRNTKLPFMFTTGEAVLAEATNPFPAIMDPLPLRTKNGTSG
Twin Strep-tag-MBP-TEV site-AHR_(1-437) F406A (P35869, form named): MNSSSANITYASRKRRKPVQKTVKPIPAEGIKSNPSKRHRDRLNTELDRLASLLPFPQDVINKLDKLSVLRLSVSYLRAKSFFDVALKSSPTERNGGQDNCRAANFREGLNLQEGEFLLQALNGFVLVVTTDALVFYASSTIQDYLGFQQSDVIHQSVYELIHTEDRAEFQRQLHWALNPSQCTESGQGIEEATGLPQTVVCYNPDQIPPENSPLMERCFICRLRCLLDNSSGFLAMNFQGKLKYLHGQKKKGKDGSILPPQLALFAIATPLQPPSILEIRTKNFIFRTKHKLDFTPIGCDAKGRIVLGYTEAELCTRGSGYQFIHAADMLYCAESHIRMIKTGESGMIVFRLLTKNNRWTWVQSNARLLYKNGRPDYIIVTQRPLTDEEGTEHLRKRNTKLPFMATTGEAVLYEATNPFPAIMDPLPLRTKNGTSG
Twin Strep-tag-MBP-TEV site-AHR_(1-437) T282A (P35869, form named): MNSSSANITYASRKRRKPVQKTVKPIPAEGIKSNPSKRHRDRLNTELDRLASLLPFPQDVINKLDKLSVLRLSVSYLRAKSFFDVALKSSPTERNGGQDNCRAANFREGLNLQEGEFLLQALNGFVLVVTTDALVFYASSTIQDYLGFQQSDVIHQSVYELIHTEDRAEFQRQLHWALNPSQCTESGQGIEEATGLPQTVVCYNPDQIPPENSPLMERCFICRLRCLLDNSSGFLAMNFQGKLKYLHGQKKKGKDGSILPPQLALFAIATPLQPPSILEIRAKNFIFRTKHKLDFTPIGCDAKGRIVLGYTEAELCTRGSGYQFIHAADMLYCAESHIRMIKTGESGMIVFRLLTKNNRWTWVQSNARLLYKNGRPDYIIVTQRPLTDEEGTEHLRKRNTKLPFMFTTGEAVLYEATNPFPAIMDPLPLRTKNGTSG
Twin Strep-tag-MBP-TEV site-AHR_(1-437), residue 279 to alanine (P35869, form named): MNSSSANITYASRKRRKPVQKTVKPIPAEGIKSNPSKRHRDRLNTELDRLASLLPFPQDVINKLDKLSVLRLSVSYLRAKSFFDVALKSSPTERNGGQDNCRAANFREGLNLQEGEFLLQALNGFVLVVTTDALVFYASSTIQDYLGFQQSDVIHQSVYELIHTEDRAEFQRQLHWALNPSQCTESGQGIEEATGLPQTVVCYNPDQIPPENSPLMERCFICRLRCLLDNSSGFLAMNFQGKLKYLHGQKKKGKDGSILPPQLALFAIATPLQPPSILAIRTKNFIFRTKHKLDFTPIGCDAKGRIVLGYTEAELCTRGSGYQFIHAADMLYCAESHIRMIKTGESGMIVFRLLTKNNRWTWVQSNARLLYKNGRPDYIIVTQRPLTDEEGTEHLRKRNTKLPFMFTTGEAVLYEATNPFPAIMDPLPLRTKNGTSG
UniProt P08238: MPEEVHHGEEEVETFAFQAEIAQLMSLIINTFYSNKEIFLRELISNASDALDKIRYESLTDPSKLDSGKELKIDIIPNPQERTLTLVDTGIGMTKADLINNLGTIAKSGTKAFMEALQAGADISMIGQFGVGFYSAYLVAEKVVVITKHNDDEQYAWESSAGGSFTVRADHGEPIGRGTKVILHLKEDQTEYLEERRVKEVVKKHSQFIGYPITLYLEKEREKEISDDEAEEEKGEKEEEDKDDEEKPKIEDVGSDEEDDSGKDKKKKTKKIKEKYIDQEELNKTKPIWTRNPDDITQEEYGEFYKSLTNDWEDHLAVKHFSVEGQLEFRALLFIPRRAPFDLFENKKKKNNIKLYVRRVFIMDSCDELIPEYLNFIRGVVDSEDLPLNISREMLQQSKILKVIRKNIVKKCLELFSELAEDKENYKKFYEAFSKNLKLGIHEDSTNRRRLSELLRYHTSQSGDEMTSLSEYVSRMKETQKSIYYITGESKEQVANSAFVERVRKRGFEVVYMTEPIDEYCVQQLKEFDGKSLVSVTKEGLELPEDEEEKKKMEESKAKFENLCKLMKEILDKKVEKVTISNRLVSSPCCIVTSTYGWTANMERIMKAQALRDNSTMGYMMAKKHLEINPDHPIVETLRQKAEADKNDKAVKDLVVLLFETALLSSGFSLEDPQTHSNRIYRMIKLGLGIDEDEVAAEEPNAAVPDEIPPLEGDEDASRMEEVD

Tests used:
[1] = target: Twin Strep-tag-MBP-TEV site-AHR_(1-437) R281A (human) (UniProt P35869); test: co-IP; HEK293F co-transfected with Twin Strep-MBP-AHR(1-437), His10-FLAG-Hsp90 and Myc-XAP2; cleared lysate on anti-MBP magnetic beads, 1 h on ice; 20 mM Bis-Tris-HCl pH 7.0, 10 mM KCl, 10 mM MgCl2, 20 mM Na2MoO4, 2 mM BME; Western blot with anti-tag antibodies
[2] = target: Twin Strep-tag-MBP-TEV site-AHR_(1-437), residue 278 to alanine (human) (UniProt P35869); test: as above
[3] = target: Twin Strep-tag-MBP-TEV site-AHR_(1-437) F404A (human) (UniProt P35869); test: as above
[4] = target: Twin Strep-tag-MBP-TEV site-AHR_(1-437) I277A (human) (UniProt P35869); test: as above
[5] = target: Twin Strep-tag-MBP-TEV site-AHR_(1-437) I280A (human) (UniProt P35869); test: as above
[6] = target: Twin Strep-tag-MBP-TEV site-AHR_(1-437) (human) (UniProt P35869); test: as above
[7] = target: Twin Strep-tag-MBP-TEV site-AHR_(1-437) P275A (human) (UniProt P35869); test: as above
[8] = target: Twin Strep-tag-MBP-TEV site-AHR_(1-437) S276A (human) (UniProt P35869); test: as above
[9] = target: Twin Strep-tag-MBP-TEV site-AHR_(1-437) Y414A (human) (UniProt P35869); test: as above
[10] = target: Twin Strep-tag-MBP-TEV site-AHR_(1-437) F406A (human) (UniProt P35869); test: as above
[11] = target: Twin Strep-tag-MBP-TEV site-AHR_(1-437) T282A (human) (UniProt P35869); test: as above
[12] = target: Twin Strep-tag-MBP-TEV site-AHR_(1-437), residue 279 to alanine (human) (UniProt P35869); test: as above
[13] = target: human aryl hydrocarbon receptor, residues 1-437 (human) (UniProt P35869); test: cryo-EM structure; ternary Hsp90-XAP2-AHR complex, co-expressed in Sf9 and co-purified, with indirubin at 5x molar excess; 20 mM Bis-Tris-HCl pH 7.0, 50 mM NaCl, 10 mM KCl, 10 mM MgCl2, 20 mM Na2MoO4, 2 mM BME; global map 2.85 Å, focused map 4.07 Å; both purified

Measured: binding

His10-tag-FLAG-tag-TEV site-Hsp90_(1-724) (from UniProt P08238 1-724)
not listed: [13]
binds: all other assays above

heat shock protein HSP 90-beta, full length, His6-tagged (from UniProt P08238 1-724)
binds: [13]
